Data from patent publication US20190077809A1, “Spirocyclic Derivatives” (BASF SE, priority 2016, published 2019).
Some of these results come from one statement about several compounds together.

How the values were obtained:
Format in all cases: in vivo
Plutella xylostella = experiment: Diamond back moth (Plutella xylostella) cabbage leaf-dip test; settings: 300 ppm; 3rd instar larvae on dipped cabbage leaves; 72 hours after treatment
Protocol: The active compound was dissolved at the desired concentration in a mixture of 1:1 (vol:vol) distilled water:aceteone. Surfactant (Kinetic HV) was added at a rate of 0.01% (vol/vol).The test solution was prepared at the day of use.
Leaves of cabbage were dipped in test solution and air-dried. Treated leaves were placed in petri dishes lined with moist filter paper and inoculated with ten 3rd instar larvae. Mortality was recorded 72 hours after treatment. Feeding damages were also recorded using a scale of 0-100%.

Myzus persicae = experiment: Green peach aphid (Myzus persicae) systemic test, artificial diet in microtiter plates; settings: 2500 ppm; adult aphids on treated artificial diet; 3 days
Description: For evaluating control of green peach aphid (Myzus persicae) through systemic means the test unit consisted of 96-well-microtiter plates containing liquid artificial diet under an artificial membrane.
The compounds were formulated using a solution containing 75% v/v water and 25% v/v DMSO. Different concentrations of formulated compounds were pipetted into the aphid diet, using a custom built pipetter, at two replications.
After application, 5-8 adult aphids were placed on the artificial membrane inside the microtiter plate wells. The aphids were then allowed to suck on the treated aphid diet and incubated at about 23±1 ° C. and about 50±5% relative humidity for 3 days. Aphid mortality and fecundity was then visually assessed.

Anthonomus grandis = experiment: Boll weevil (Anthonomus grandis) insect diet/egg microtiter test; settings: 2500 ppm; egg and larval mortality on sprayed insect diet; 5 days
Protocol: For evaluating control of boll weevil (Anthonomus grandis) the test unit consisted of 96-well-microtiter plates containing an insect diet and 5-10 A. grandis eggs.
(§1) The compounds were formulated using a solution containing 75% v/v water and 25% v/v DMSO. Different concentrations of formulated compounds were sprayed onto the insect diet at 5 μl, using a custom built micro atomizer, at two replications.
After application, microtiter plates were incubated at about 25±1° C. and about 75±5% relative humidity for 5 days. Egg and larval mortality was then visually assessed.

Dichromothrips corbetti = experiment: Orchid thrips (dichromothrips corbetti) floral-immersion test; settings: 300 ppm; adult thrips on dipped orchid petals; 72 hours after treatment
Protocol: Dichromothrips corbetti adults used for bioassay were obtained from a colony maintained continuously under laboratory conditions. For testing purposes, the test compound is diluted in a 1:1 mixture of acetone:water (vol:vol), plus Kinetic HV ata rate of 0.01% v/v.
Thrips potency of each compound was evaluated by using a floral-immersion technique. All petals of individual, intact orchid flowers were dipped into treatment solution and allowed to dry in Petri dishes. Treated petals were placed into individual re-sealable plastic along with about 20 adult thrips. All test arenas were held under continuous light and a temperature of about 28° C. for duration of the assay. After 3 days, the numbers of live thrips were counted on each petal. The percent mortality was recorded 72 hours after treatment.

Nephotettix virescens = experiment: Rice green leafhopper (Nephotettix virescens) sprayed rice seedling test; settings: 300 ppm; adults on sprayed rice seedlings; after 72 hours
Protocol: Rice seedlings were cleaned and washed 24 hours before spraying. The active compounds were formulated in 1:1 acetone:water (vol:vol), and 0.01% vol/vol surfactant (Kinetic HV) was added. Potted rice seedlings were sprayed with 5-6 ml test solution, air dried, covered with Mylar cages cages and inoculated with 10 adults. Treated rice plants were kept at about 28-29° C. and relative humidity of about 50-60%. Percent mortality was recorded after 72 hours.

Tetranychus kanzawai = experiment: Red spider mite (Tetranychus kanzawai) sprayed cowpea bean test; settings: 300 ppm; mites on sprayed cowpea beans; 72 hours after treatment
Protocol: The active compound was dissolved at the desired concentration in a mixture of 1:1 (vol:vol) distilled water:acetone. Add surfactant (Kinetic HV) was added at a rate of 0.01% (vol/vol).The test solution was prepared at the day of use.
Potted cowpea beans of 4-5 days of age were cleaned with tap water and sprayed with 1-2 ml of the test solution using air driven hand atomizer. The treated plants were allowed to air dry and afterwards inoculated with 30 or more mites by clipping a cassava leaf section from rearing population. Treated plants were placed inside a holding room at about 25-27° C. and about 50-60% relative humidity. Percent mortality was assessed 72 hours after treatment.

Nezara viridula = experiment: Green soldier stink bug (Nezara viridula) sprayed soybean pod test; settings: 300 ppm; late 3rd instar on sprayed soybean pods; after 5 days
Protocol: The active compound was dissolved at the desired concentration in a mixture of 1:1 (vol:vol) distilled water:acetone. Surfactant (Kinetic HV) was added at a rate of 0.01% (vol/vol). The test solution was prepared at the day of use.Soybean pods were placed in glass Petri dishes lined with moist filter paper and inoculated with ten late 3rd instar N. vindula. Using a hand atomizer, approximately 2 ml solution is sprayed into each Petri dish. Assay arenas were kept at about 25° C. Percent mortality was recorded after 5 days.

Megoura viciae = experiment: Vetch aphid (Megoura viciae) broad bean leaf disk test; settings: 2500 ppm; adult aphids on sprayed broad bean leaf disks; 5 days
Protocol: For evaluating control of vetch aphid (Megoura viciae) through contact or systemic means the test unit consisted of 24-well-microtiter plates containing broad bean leaf disks.
The compounds were formulated using a solution containing 75% v/v water and 25% v/v DMSO. Different concentrations of formulated compounds were sprayed onto the leaf disks at 2.5 μl, using a custom built micro atomizer, at two replications.
After application, the leaf disks were air-dried and 5- 8 adult aphids placed on the leaf disks inside the microtiter plate wells. The aphids were then allowed to suck on the treated leaf disks and incubated at about 23±1° C. and about 50±5% relative humidity for 5 days. Aphid mortality and fecundity was then visually assessed.

Heliothis virescens = experiment: Tobacco budworm (Heliothis virescens) insect diet/egg microtiter test; settings: 2500 ppm; egg and larval mortality on sprayed insect diet; 5 days
Protocol: For evaluating control of tobacco budworm (Heliothis virescens) the test unit consisted of 96-well-microtiter plates containing an insect diet and 15-25 H. virescens eggs.
The compounds were formulated using a solution containing 75% v/v water and 25% v/v DMSO. Different concentrations of formulated compounds were sprayed onto the insect diet at 10 μl, using a custom built micro atomizer, at two replications.
After application, microtiter plates were incubated at about 28+1° C. and about 80+5% relative humidity for 5 days. Egg and larval mortality was then visually assessed.

Ceratitis capitata = experiment: Mediterranean fruitfly (Ceratitis capitata) insect diet/egg microtiter test; settings: 2500 ppm; egg and larval mortality on sprayed insect diet; 5 days
Protocol: For evaluating control of Mediterranean fruitfly (Ceratitis capitata) the test unit consisted of microtiter plates containing an insect diet and 50-80 C. capitata eggs.
as §1
After application, microtiter plates were incubated at about 28±1° C. and about 80±5% relative humidity for 5 days. Egg and larval mortality was then visually assessed.

Spodoptera eridania = experiment: Southern armyworm (Spodoptera eridania) sprayed lima bean foliage test; settings: 10 ppm; larvae on sprayed lima bean plants; 4 days after treatment
Protocol: The active compounds were formulated in cyclohexanone as a 10,000 ppm solution supplied in tubes. The tubes were inserted into an automated electrostatic sprayer equipped with an atomizing nozzle and they served as stock solutions for which lower dilutions were made in 50% acetone:50% water (v/v). A nonionic surfactant (Kinetic®) was included in the solution at a volume of 0.01% (v/v).
Lima bean plants (variety Sieva) were grown 2 plants to a pot and selected for treatment at the 1st true leaf stage. Test solutions were sprayed onto the foliage by an automated electrostatic plant sprayer equipped with an atomizing spray nozzle. The plants were dried in the sprayer fume hood and then removed from the sprayer. Each pot was placed into perforated plastic bags with a zip closure. About 10 to 11 armyworm larvae were placed into the bag and the bags zipped closed. Test plants were maintained in a growth room at about 25° C. and about 20-40% relative humidity for 4 days, avoiding direct exposure to fluorescent light (24 hour photoperiod) to prevent trapping of heat inside the bags. Mortality and reduced feeding were assessed 4 days after treatment, compared to untreated control plants.

Halyomorpha halys = experiment: Brown marmorated stink bug (Halyomorpha halys) sprayed peanut/soybean seed test; settings: 100 ppm; adult stage, sprayed cups with peanuts and soybean seeds; after 5 days
Protocol: The active compound was dissolved at the desired concentration in a mixture of 1:1 (vol:vol) distilled water:acetone. Surfactant (Kinetic HV) was added at a rate of 0.01% (vol/vol). The test solution was prepared at the day of use.
Row peanuts and soybean seeds were placed into microwavable plastic cups and inoculated with five adult stage H. halys. Using a hand atomizer, approximately 1 ml solution is sprayed into each cup, insects and food present. A water source was provided (cotton wick with water). Each treatment is replicated 4-fold. Assay arenas are kept at about 25° C. Percent mortality was recorded after 5 days.

Measured: mortality in comparison with untreated controls

CC(=O)N1CC2(C1)OCc1cc(C3=CCC(c4cc(Cl)c(F)c(Cl)c4)(C(F)(F)F)C3)ccc12 (stereo not drawn) [Compound I-1-2]
at least 75%: Plutella xylostella | Myzus persicae | Anthonomus grandis | Dichromothrips corbetti | Nephotettix virescens | Tetranychus kanzawai | Nezara viridula

CC(C)C(=O)N1CC2(C1)OCc1cc(C3=CCC(c4cc(Cl)c(F)c(Cl)c4)(C(F)(F)F)C3)ccc12 (stereo not drawn) [Compound I-1-3]
not listed: Spodoptera eridania | Halyomorpha halys
at least 75%: all other assays above

CC(C)CC(=O)N1CC2(C1)OCc1cc(C3=CCC(c4cc(Cl)c(F)c(Cl)c4)(C(F)(F)F)C3)ccc12 (stereo not drawn) [Compound I-1-4]
not listed: Nephotettix virescens | Nezara viridula | Spodoptera eridania | Halyomorpha halys
at least 75%: all other assays above

O=C(c1cccnc1)N1CC2(C1)OCc1cc(C3=CCC(c4cc(Cl)c(F)c(Cl)c4)(C(F)(F)F)C3)ccc12 (stereo not drawn) [Compound I-1-5]
at least 75%: Plutella xylostella | Myzus persicae | Megoura viciae | Heliothis virescens | Anthonomus grandis | Ceratitis capitata | Dichromothrips corbetti

CC(C)(C)OC(=O)N1CC2(C1)OCc1cc(C3=CSC(c4cc(Cl)c(F)c(Cl)c4)(C(F)(F)F)C3)ccc12 (stereo not drawn) [Compound I-2-1]
at least 75%: Plutella xylostella | Heliothis virescens | Anthonomus grandis | Ceratitis capitata | Dichromothrips corbetti

O=C(C1CC1)N1CC2(C1)OCc1cc(C3=CSC(c4cc(Cl)c(F)c(Cl)c4)(C(F)(F)F)C3)ccc12 (stereo not drawn) [Compound I-2-5]
at least 75%: all assays above

O=C(CC(F)(F)F)N1CC2(C1)OCc1cc(C3=CSC(c4cc(Cl)c(F)c(Cl)c4)(C(F)(F)F)C3)ccc12 (stereo not drawn) [Compound I-2-6]
at least 75%: all assays above

CS(=O)(=O)CC(=O)N1CC2(C1)OCc1cc(C3=CSC(c4cc(Cl)c(F)c(Cl)c4)(C(F)(F)F)C3)ccc12 (stereo not drawn) [Compound I-2-7]
not listed: Nephotettix virescens | Tetranychus kanzawai | Spodoptera eridania | Halyomorpha halys
at least 75%: all other assays above
